Data as given in PubChem BioAssay AID1224830 (NIAID, 2016)
The deposit covers about 18,000 reagents; this is a part drawn at random. About 2,900 of them (16%) were called active. 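Calls are made per well; low scores hint the gene aids the LPS response, high scores that it dampens it.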 Repeated entries: four replicate wells of each siRNA pool.

Assay: 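Host factors that control LPS-induced TNF expression in human macrophages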 (primary screen)
Cells: human THP-1 monocytic leukaemia cells, TNF dual-luciferase reporter clone, PMA-differentiated to macrophage-like cells
Reagent: siRNA pool against human genes, 50 nM
Time to read-out: LPS for 4 h, given about 3 days after siRNA transfection
Challenge: bacterial LPS (TLR4 ligand), 10 ng/ml
Detection: 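TNF firefly reporter luminescence divided by renilla, normalised to the plate median, then turned into a robust z-score for each replicate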
Scale: TNF reporter robust z-score: higher = stronger TNF reporter response to LPS
Active means: 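Each well counts as active if its z-score is over 2.8 or under -1.5; controls are left without a call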

LMLN [SID315460733] gave TNF reporter robust z-score 0.08; inactive.
Depletion of LMLN [SID315460733] came out at: TNF reporter robust z-score 7.85; active.
After knock-down of LMLN [SID315460733], the screen gave TNF reporter robust z-score 0.09; inactive.
Knock-down of LMLN [SID315460733] gave: TNF reporter robust z-score 0.49; inactive.
CYSRT1 [SID315464385] scored TNF reporter robust z-score 0.07; inactive.
For CYSRT1 [SID315464385] the deposit lists TNF reporter robust z-score -0.18; inactive.
With knock-down of CYSRT1 [SID315464385], the record shows TNF reporter robust z-score -0.15; inactive.
Knock-down of CYSRT1 [SID315464385] gave: TNF reporter robust z-score -0.78; inactive.
Silencing of SH3BGRL [SID315451407] gave: TNF reporter robust z-score -0.57; inactive.
For SH3BGRL [SID315451407], the values are TNF reporter robust z-score -0.08; inactive.
With knock-down of SH3BGRL [SID315451407] the results were TNF reporter robust z-score -0.64; inactive.
SH3BGRL [SID315451407] gave TNF reporter robust z-score -0.13; inactive.
Depletion of HARS2 [SID315455245] gave: TNF reporter robust z-score -1.61; active.
HARS2 [SID315455245] gave TNF reporter robust z-score -1.17; inactive.
For HARS2 [SID315455245], the values are TNF reporter robust z-score -1.69; active.
HARS2 [SID315455245] scored TNF reporter robust z-score -1.75; active.
COG7 [SID315460967] scored TNF reporter robust z-score 0.12; inactive.
After knock-down of COG7 [SID315460967], the screen gave TNF reporter robust z-score -0.58; inactive.
Knock-down of COG7 [SID315460967] resulted in: TNF reporter robust z-score -1.05; inactive.
For COG7 [SID315460967] the deposit lists TNF reporter robust z-score -0.04; inactive.
After knock-down of CHD3 [SID315447902], the screen gave TNF reporter robust z-score 1.43; inactive.
CHD3 [SID315447902] scored TNF reporter robust z-score 4.7; active.
Against CHD3 [SID315447902] the deposit lists TNF reporter robust z-score 2.18; inactive.
CHD3 [SID315447902] gave TNF reporter robust z-score 4.1; active.
With knock-down of FAXC [SID315460407], the screen gave TNF reporter robust z-score -0.73; inactive.
Knock-down of FAXC [SID315460407] came out at: TNF reporter robust z-score -0.88; inactive.
FAXC [SID315460407] showed TNF reporter robust z-score -0.54; inactive.
Against FAXC [SID315460407], the entry reads TNF reporter robust z-score -1.37; inactive.
Against PAIP1 [SID315454227] the deposit lists TNF reporter robust z-score -0.24; inactive.
PAIP1 [SID315454227] scored TNF reporter robust z-score -0.11; inactive.
For PAIP1 [SID315454227] the deposit lists TNF reporter robust z-score -0.55; inactive.
After knock-down of PAIP1 [SID315454227] the results were TNF reporter robust z-score -0.45; inactive.

Reagents above called active, once more:
LMLN [SID315460733] — TNF reporter robust z-score = 7.85; outcome = active
HARS2 [SID315455245] — TNF reporter robust z-score = -1.61; outcome = active
HARS2 [SID315455245] — TNF reporter robust z-score = -1.69; outcome = active
HARS2 [SID315455245] — TNF reporter robust z-score = -1.75; outcome = active
CHD3 [SID315447902] — TNF reporter robust z-score = 4.7; outcome = active
CHD3 [SID315447902] — TNF reporter robust z-score = 4.1; outcome = active
